The record followed here is US6589933.

By UniProt entry, the sequences of proteins in these tests, tags left out. Residues count along the entry.
UniProt P13236, residues 24-92: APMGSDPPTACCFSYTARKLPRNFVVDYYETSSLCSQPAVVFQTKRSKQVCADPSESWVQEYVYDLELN

These are yes or no findings as the source states them, for the method shown. Some entries that bind do so weakly or less than the wild type.

The target of this assay is human MIP-1β (human) (UniProt P13236). Kind of assay: 125I-ligand cross-linking to infected BGMK supernatant, SDS-PAGE gel shift.

“35 KDa protein from vaccinia (strain Lister) (from UniProt P19063 18-258)”: the binding entry is “binds”.
